PubChem BioAssay (EPA / NIEHS)
The inconclusive results got no clear call from the source; some entries with a clear call stand among them for comparison. Potencies beside an inconclusive call are fits to weak or partial responses and may not hold up. More than one record can exist for a structure, and the calls need not agree. Calls of active or inactive are those of the source. Rule for the calls: active = hit-call score of the fitted dose curve at least 0.9, where 1 is the maximum; inconclusive = response in the unintended direction; inactive = score below 0.9.

Each molecule was assayed on turtle Thyroid Hormone Receptor, alpha (TRa), gene 101949057 (assay: ATG_trTRa_XSP2: Attagene TRANS-FACTORIAL Multi-Species (XSP1) HepG2 Assay for turtle Thyroid Hormone Receptor, alpha (TRa) (AID 2283834);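 note: hits raise reporter mRNA over the DMSO baseline so AC50 marks activators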).
Protocol: ATG_XSP2_multi-species_TRANS is a cell-based, multiplexed assay created by modifying the existing Attagene TRANS-FACTORIAL system to include a panel of nuclear receptors from some or all the following species: human (Homo sapiens), mouse (Mus musculus), frog (Xenopus laevis), zebrafish (Danio rerio), chicken (Gallus gallus), and turtle (Chrysemys picta). The ECOTOX-FACTORIAL format uses HepG2, a human liver cell line, with measurements taken at 24 hours after chemical dosing in a 24-well plate. Xsp2 included 3 nM 6-alpha-fluorotestosterone and 1.5 nM norgestrel to stimulate the androgen receptor.ATG_trTRa_XSP2 is one of 29 assay components measured or calculated from the ATG_XSP2_multi-species_TRANS assay. It is designed to make measurements of mRNA induction, a form of inducible reporter, as detected with fluorescence intensity signals by Reverse transcription polymerase chain reaction (RT-PCR) and Capillary electrophoresis technology.The assay endpoint ATG_trTRa_XSP2 was analyzed in the positive analysis fitting direction relative to DMSO as the negative control and baseline of activity. Using a type of inducible reporter, measures of mRNA for gain-of-signal activity can be used to understand the reporter gene at the transcription factor-level as they relate to the gene TR. Furthermore, this assay endpoint can be referred to as a primary readout, because this assay has produced multiple assay endpoints where this one serves a reporter gene function. To generalize the intended target to other relatable targets, this assay endpoint is annotated to the nuclear receptor intended target family, where the subfamily is non-steroidal.
Human liver HepG2 cells are transiently transfected with multiple reporter transcription units (MRTUs) in 6-well plates using FuGene 6 reagent (Roche; 3 ml FuGene/1 mg DNA). The MRTU constructs are regulated by a cis-regulating element (promoter). […] A major difference between the CIS and TRANS system is that in CIS activities of endogenous TFs are measured, whereas the TRANS assay evaluates changes in activities of exogenous, chimeric NR-Gal4 proteins. […] At the end of 24 hour incubation, total RNA was isolated using TriZol reagent (Invitrogen). The isolated RNA is then reverse-transcribed using oligo(dT) primer and Mo-MLV reverse transcriptase (Invitrogen) with DNAse I (Ambion) treatment for 30 min. The one-tenth of the produced cDNA was amplified by PCR using Taq DNA polymerase (Invitrogen) and two reporter sequence-specific primers. The PCR products were fluorescently labeled by primer extension with 6-arboxyfluorescein (6-FAM) 5'-labeled reporter sequence-specific primer (2 min at 95 C, 20 s at 68 C and 10 min at 72 C) and these products were digested with 5U of HpaI (New England Biolabs) for 2h at 37 C. The fragments were purified using Qiaquick PCR columns (Qiagen), analyzed on an ABI 3130xL genetic analyzer (Applied Biosystems) with peak positions identified by using a set of X-rhodamine (ROX)-labeled MapMarker1000 molecular weight standards (BioVentures). The raw capillary electrophoresis data was processed using Attagraph software (Attagene).

outcome, inactive:
C#C[C@]1(O)CC[C@H]2[C@@H]3CCc4cc(O)ccc4[C@H]3CC[C@@]21C
Oc1ccc2cc(SSc3ccc4cc(O)ccc4c3)ccc2c1
c1ccc2c(c1)ccc1ccccc12

AC50, inconclusive:
Cc1oc(-c2ccccc2)nc1CCOc1ccc(C[C@H](Nc2ccccc2C(=O)c2ccccc2)C(=O)O)cc1 0.0211 µM
O=C(Oc1ccccc1)c1ccc(O)cc1 0.0823 µM
CC(C)(C)c1ccc(S)cc1 100 µM
CCCCC(CC)COC(=O)c1ccccc1C(=O)O (configuration not stated) 174 µM
CC(=O)O[C@]1(C(C)=O)CC[C@H]2[C@@H]3C=C(Cl)C4=CC(=O)[C@@H]5C[C@@H]5[C@]4(C)[C@H]3CC[C@@]21C 167 µM
CC(=O)[C@@]1(O)CC[C@H]2[C@@H]3CCC4=CC(=O)CC[C@]4(C)[C@H]3CC[C@@]21C 100 µM
Cc1cc(O)cc(C)c1Cl 100 µM
c1ccc2c(c1)ccc1ccccc12 8.21 µM
CN(CCOc1ccc(CC2SC(=O)NC2=O)cc1)c1ccccn1 (configuration not stated) 0.1 µM
BrCc1cccc(Oc2ccccc2)c1 100 µM
CCCCC(CC)COC(=O)c1ccc(O)cc1 (configuration not stated) 0.198 µM
CC/C(=C(\c1ccccc1)c1ccc(OCCN(C)C)cc1)c1ccccc1 5.55 µM
C[C@]12CC[C@@H]3c4ccc(O)cc4CC[C@H]3[C@@H]1CCC2=O 0.1 µM

Part of the list above in order of number of heavy atoms, descending:
AC50, inconclusive:
C[C@]12CC[C@@H]3c4ccc(O)cc4CC[C@H]3[C@@H]1CCC2=O 0.1 µM
O=C(Oc1ccccc1)c1ccc(O)cc1 0.0823 µM
Cc1cc(O)cc(C)c1Cl 100 µM

Next part.

AC50, active:
Oc1ccc2cc(SSc3ccc4cc(O)ccc4c3)ccc2c1 26.8 µM
